{"source": "PubChem BioAssay AID504834", "about": "(National Center for Advancing Translational Sciences (NCATS), 2011)", "note": "The campaign covered roughly 320,000 compounds. About 22,000 (6.9%) were called active. Inconclusive results, whose numbers are uncertain, are shown with a selection of clear calls. The call rests on the fitted dose curve; in most records, active means well fitted inhibition curve with a large enough effect; inconclusive means small, poorly fitted or top-dose-only effect, or another doubt; inactive means no such curve, though single readings can be large or run the other way. Potencies of inconclusive entries are doubtful fits and often do not repeat. On the % scale 0 is the no-effect control and ±100 the full control effect; potency means the concentration at half of the fitted maximal effect."}
{"assay": "Primary qHTS for delayed death inhibitors of the malarial parasite plastid, 96 hour incubation", "settings": "P. falciparum luciferase reporter growth; series mostly up to 28.7 µM", "outline": "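Compounds incubated with erythrocytes infected by luciferase-expressing P. falciparum (2% hematocrit, 0.05% parasitemia final) for 96 hours, 37 C in 5% CO2. Growth inhibition scored as decreased luciferase luminescence.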"}
{"compound": "O=C(Oc1c(Cl)cc(Cl)c2ccccc12)N1CCCC1", "Potency": "inconclusive: 0.0019 µM [inhibitor, full curve, poor fit]"}
{"compound": "COc1ccc(-c2[nH]ncc2CNC(C)c2ccccc2Cl)cc1F", "note": "(stereo not drawn)", "Potency": "inconclusive: 9.28 µM [inhibitor, partial curve]"}
{"compound": "CCN(Cc1cc2cc(OC)ccc2[nH]c1=O)C(=O)c1ccncc1", "Potency": "active: 9.28 µM"}
{"compound": "Cn1ccnc1SCC(=O)Nc1cccc(S(=O)(=O)N2CCCCC2)c1", "activity change, negative = inhibition": "inactive: -31.4% [at 5.75 µM]"}
{"compound": "Cc1ccc(CN2C(=O)CCC2C(=O)NCCN2CCOCC2)cc1", "note": "(stereo not drawn)", "Potency": "inconclusive: 18.5 µM [inhibitor, single point]"}
{"compound": "COC/C=C/C1=CC2=CC(=O)C(C)(OC(=O)c3cnc4ccccc4n3)C(=O)C2=CN1c1ccc(CO)cc1", "note": "(stereo not drawn)", "Potency": "inactive"}
{"compound": "Clc1ccc(COn2c(-c3ccc(Cl)cc3)nc3ccccc32)cc1", "Potency": "inconclusive: 18.5 µM [inhibitor, single point]"}
{"compound": "CCOC(=O)Cc1csc(NC(=O)CSc2nnc(-c3ccncc3)o2)n1", "Potency": "inactive"}
{"compound": "COc1ccccc1CNC(=O)c1ccc(OCc2c(C)noc2C)c(OC)c1", "Potency": "inactive"}
{"compound": "CC1CC(C)CN(C(=O)Cn2c(=O)n(CCCCC(=O)NCc3ccco3)c(=O)c3ccccc32)C1", "note": "(stereo not drawn)", "Potency": "inconclusive: 18.5 µM [inhibitor, single point]"}
{"compound": "COc1ccc(/C=C2\\SC(=S)NC2=O)cc1OS(=O)(=O)c1ccc(NC(C)=O)cc1", "Potency": "inconclusive: 14.7 µM [inhibitor, partial curve, poor fit]"}
{"compound": "CSc1cc(-c2ccc(Cl)cc2)c(C(=O)NC(C)C)s1", "Potency": "inactive"}
{"compound": "Cc1ccc(NC(=O)c2cc([N+](=O)[O-])ccc2N2CCOCC2)cc1S(=O)(=O)N1CCOCC1", "Potency": "inconclusive: 18.5 µM [inhibitor, single point]"}
{"compound": "CCCCCCCN1C(N(C)C)=NC[C@@H]1Cc1ccccc1", "Potency": "inconclusive: 9.28 µM [inhibitor, single point]"}
{"compound": "COC(=O)C1=C(C)Nc2nc3ccccc3n2C1c1ccccc1F", "note": "(stereo not drawn)", "Potency": "inconclusive: 11.7 µM [inhibitor, partial curve]"}
{"compound": "CCOc1cc(C2NC(=O)NC(O)(C(F)(F)F)C2C(=O)c2ccccc2)ccc1OC", "note": "(stereo not drawn)", "Potency": "inconclusive: 11.7 µM [inhibitor, partial curve, poor fit]"}
{"compound": "COc1ccc(OC)c(C2=NS(=O)(=O)N(C)C(C(=O)Nc3ccc(F)cc3F)=C2)c1", "Potency": "inconclusive: 18.5 µM [inhibitor, single point]"}
{"compound": "O=C(NCc1cccnc1)C(=O)N/N=C/c1ccc([N+](=O)[O-])cc1", "Potency": "inconclusive: 14.7 µM [inhibitor, single point]"}
